Literature values as cited in patent US20190160064A1, “METHODS FOR TREATING SKELETAL MUSCLE CACHEXIA ARISING FROM BURN INJURY BY ADMINISTERING PDE4B-SELECTIVE INHIBITORS” (University of Cincinnati, priority 2017, published 2019).
At least one compound was matched to its structure with a doubt left.

Tested on: mice with burn injury
Conditions: cited from earlier work

SMILES: CN1CC(=O)N2[C@H](c3ccc4c(c3)OCO4)c3[nH]c4ccccc4c3C[C@@H]2C1=O [Tadalafil]
- survival: improve survival
